# Data as given in the supplement of paper PMC11732987, “Enantioselective OTUD7B fragment discovery through chemoproteomics screening and high-throughput optimisation” (Communications Chemistry, 2025).
# Protein sequences, listed by entry. Tags and fused reporters are not part of them. Lines headed by an entry give the natural chain unless they say otherwise; changes in a name come on top. Residues count along the entry.
# UniProt Q29RF7, 518-538: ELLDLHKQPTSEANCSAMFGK
# UniProt Q6PCE3: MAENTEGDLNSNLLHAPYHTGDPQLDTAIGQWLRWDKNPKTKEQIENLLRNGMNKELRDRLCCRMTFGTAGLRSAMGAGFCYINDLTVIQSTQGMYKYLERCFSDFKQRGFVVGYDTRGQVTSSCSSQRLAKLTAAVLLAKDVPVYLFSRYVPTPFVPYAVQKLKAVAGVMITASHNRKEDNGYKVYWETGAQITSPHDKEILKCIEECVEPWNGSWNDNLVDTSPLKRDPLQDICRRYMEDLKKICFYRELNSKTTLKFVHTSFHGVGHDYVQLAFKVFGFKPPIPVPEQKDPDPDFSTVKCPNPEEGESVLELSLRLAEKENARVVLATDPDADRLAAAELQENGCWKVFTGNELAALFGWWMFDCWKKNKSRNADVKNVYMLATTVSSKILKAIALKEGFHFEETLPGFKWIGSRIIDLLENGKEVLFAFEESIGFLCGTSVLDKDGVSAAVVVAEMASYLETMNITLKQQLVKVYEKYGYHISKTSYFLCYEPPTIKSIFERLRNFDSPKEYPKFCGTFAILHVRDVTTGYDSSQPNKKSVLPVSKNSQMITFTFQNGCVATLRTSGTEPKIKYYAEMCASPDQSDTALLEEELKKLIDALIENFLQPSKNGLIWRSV
# UniProt Q9H8K7: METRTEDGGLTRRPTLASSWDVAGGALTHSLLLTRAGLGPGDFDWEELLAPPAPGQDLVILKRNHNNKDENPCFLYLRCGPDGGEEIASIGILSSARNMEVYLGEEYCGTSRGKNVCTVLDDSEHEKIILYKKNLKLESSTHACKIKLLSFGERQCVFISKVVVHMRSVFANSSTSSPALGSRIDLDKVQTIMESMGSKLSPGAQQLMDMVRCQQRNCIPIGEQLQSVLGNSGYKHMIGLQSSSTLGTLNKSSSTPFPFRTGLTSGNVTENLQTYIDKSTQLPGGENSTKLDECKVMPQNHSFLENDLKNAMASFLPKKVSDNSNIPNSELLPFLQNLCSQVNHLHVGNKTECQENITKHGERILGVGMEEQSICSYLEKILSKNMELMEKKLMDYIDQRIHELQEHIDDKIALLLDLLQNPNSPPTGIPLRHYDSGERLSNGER
# UniProt Q5JVF3: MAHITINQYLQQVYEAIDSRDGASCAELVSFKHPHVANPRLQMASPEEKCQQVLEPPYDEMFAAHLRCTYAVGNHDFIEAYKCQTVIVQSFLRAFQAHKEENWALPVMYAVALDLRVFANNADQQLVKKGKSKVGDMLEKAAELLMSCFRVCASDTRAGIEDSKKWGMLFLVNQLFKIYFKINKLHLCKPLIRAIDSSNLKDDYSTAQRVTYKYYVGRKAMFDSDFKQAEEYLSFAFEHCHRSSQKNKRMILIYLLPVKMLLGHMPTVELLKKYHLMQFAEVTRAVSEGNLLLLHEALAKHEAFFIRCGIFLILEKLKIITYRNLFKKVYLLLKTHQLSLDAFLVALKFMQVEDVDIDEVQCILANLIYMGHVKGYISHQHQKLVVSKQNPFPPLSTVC
# UniProt Q14554: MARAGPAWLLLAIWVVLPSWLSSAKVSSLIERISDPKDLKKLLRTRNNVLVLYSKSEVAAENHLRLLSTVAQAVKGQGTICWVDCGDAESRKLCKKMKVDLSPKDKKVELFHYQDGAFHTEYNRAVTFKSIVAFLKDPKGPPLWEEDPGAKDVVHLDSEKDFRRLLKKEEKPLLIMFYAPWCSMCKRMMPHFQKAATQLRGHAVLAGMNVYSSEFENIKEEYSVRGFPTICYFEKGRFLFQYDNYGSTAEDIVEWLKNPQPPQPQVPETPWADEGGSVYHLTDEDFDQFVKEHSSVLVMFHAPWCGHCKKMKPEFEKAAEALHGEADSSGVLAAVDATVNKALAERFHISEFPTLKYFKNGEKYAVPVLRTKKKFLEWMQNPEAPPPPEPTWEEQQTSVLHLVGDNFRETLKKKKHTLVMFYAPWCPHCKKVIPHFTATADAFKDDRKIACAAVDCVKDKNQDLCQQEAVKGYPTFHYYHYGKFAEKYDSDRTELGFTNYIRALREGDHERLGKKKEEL
# UniProt P00558: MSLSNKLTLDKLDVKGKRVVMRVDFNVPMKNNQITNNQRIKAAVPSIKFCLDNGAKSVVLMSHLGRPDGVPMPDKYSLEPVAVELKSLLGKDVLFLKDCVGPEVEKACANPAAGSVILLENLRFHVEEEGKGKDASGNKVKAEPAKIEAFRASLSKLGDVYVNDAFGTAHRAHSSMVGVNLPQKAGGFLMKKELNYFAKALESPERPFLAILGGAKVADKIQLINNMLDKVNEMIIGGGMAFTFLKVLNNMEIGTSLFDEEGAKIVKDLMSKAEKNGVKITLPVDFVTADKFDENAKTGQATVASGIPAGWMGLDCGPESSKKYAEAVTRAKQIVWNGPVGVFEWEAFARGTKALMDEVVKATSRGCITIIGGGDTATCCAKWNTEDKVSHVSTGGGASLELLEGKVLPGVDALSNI
# UniProt Q86YH6: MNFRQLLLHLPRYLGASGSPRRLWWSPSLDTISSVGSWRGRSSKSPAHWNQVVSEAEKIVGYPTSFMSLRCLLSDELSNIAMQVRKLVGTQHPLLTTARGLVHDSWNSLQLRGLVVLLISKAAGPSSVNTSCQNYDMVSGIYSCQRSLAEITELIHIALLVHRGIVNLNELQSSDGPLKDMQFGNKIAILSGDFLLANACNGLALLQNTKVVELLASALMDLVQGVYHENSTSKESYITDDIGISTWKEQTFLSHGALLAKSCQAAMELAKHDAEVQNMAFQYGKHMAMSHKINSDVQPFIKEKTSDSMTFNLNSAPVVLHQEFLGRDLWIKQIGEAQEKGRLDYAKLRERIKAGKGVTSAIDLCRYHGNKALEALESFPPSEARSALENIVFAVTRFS
# UniProt O95613, 2144-2164: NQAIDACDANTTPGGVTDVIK
# UniProt Q6P996: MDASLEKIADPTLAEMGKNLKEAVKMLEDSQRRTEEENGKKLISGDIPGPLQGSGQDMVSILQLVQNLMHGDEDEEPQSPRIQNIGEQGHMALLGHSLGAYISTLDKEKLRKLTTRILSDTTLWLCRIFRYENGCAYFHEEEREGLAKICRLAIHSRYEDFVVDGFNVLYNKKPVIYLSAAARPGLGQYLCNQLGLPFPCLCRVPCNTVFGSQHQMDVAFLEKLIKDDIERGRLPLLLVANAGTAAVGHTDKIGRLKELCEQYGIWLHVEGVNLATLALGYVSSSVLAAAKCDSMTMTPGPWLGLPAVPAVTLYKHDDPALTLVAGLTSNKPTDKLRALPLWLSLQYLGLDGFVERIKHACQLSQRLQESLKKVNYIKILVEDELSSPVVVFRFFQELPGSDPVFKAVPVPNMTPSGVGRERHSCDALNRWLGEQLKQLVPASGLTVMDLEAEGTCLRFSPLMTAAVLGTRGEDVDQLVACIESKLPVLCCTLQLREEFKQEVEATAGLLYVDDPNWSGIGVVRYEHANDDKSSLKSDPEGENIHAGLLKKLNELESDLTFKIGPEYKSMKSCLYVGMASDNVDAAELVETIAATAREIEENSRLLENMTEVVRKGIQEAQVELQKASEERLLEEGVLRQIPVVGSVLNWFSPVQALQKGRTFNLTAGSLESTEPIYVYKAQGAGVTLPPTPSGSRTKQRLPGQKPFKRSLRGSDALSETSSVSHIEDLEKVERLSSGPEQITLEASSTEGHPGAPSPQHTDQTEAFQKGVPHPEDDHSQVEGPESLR
# UniProt P12955: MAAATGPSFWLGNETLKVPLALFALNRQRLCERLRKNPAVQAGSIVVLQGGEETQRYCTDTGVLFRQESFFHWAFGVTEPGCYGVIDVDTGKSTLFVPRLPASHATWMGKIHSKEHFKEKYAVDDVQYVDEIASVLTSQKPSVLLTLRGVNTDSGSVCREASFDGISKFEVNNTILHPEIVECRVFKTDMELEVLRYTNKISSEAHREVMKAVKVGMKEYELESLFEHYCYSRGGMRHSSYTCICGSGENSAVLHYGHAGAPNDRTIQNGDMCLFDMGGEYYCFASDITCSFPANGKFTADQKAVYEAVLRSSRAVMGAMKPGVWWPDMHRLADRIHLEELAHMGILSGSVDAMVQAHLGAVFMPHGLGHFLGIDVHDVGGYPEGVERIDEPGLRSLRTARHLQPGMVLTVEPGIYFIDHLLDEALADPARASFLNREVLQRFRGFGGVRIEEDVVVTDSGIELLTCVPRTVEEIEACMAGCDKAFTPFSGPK
# UniProt Q53EL6: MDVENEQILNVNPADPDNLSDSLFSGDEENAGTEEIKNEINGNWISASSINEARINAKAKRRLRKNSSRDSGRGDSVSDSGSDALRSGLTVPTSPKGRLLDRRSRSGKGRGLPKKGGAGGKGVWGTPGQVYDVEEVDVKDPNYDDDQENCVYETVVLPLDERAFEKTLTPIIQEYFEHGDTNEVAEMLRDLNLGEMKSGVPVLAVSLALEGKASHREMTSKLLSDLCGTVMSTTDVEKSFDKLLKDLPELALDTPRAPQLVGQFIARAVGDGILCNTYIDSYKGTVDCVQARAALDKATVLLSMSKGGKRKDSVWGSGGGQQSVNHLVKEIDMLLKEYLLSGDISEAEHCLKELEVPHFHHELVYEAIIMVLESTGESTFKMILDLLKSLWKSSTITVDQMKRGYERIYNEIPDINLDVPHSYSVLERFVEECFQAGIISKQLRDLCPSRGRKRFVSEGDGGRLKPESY
# UniProt P30039, 18-37: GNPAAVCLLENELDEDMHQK
# UniProt P12004: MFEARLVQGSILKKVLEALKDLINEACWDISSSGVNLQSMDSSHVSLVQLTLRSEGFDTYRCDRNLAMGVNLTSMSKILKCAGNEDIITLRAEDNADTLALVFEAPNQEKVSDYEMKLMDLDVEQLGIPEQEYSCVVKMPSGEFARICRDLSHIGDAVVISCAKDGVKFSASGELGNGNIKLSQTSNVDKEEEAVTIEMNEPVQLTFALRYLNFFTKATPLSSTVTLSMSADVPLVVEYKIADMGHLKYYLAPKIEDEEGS
# UniProt O00151: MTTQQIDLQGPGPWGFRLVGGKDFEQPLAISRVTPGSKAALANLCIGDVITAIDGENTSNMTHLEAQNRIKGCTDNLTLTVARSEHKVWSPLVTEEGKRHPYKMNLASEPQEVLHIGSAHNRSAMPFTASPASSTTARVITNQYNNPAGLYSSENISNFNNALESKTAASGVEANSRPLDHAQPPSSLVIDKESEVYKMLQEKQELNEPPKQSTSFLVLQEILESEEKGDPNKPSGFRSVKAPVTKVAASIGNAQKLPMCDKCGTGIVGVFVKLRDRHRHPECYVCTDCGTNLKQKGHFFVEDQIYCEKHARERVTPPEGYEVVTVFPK
# UniProt O15534: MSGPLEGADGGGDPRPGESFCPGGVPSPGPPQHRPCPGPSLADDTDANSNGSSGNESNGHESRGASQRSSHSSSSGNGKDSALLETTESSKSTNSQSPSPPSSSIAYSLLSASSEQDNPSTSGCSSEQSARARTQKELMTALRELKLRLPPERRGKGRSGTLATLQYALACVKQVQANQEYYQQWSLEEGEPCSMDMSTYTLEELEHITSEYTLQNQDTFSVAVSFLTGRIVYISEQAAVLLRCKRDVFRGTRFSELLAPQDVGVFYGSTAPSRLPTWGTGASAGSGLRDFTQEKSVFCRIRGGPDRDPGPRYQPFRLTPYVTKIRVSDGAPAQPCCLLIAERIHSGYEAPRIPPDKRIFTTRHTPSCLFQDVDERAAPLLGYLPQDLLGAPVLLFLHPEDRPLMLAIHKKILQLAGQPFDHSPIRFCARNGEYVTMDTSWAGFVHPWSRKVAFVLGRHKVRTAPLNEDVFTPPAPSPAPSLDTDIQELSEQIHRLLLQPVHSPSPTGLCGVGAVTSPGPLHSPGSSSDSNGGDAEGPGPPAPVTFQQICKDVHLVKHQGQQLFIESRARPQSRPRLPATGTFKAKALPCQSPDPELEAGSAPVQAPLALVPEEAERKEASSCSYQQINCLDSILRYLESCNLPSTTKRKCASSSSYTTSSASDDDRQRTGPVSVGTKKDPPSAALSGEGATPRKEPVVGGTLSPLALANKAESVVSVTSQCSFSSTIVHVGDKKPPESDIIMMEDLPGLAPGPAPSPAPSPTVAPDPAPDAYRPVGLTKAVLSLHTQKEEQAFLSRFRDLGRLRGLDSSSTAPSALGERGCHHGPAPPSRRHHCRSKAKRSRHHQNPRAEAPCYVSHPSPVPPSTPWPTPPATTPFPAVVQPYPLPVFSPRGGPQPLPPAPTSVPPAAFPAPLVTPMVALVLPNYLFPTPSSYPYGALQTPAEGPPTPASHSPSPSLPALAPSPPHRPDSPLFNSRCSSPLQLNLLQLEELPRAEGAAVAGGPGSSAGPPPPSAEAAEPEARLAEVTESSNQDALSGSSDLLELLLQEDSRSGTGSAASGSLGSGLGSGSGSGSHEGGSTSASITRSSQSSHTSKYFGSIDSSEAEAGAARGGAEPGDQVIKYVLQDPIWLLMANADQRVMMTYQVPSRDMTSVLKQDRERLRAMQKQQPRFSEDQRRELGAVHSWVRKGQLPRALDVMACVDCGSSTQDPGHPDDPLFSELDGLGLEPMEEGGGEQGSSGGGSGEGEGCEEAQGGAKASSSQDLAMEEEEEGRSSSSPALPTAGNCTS
# Some of the results follow. The data scatter; read single values as rough.
# Compound: ClCC(=O)N[C@@H]1CCCc2ccccc12
# Test: log2 mean competition ratio of IA-DTB cysteine labelling (DMSO/compound) (log2 ratio); higher = stronger cysteine engagement by compound
# Conditions: 50 µM; treatment time: 4 h; cell line lysate: HEK293T
# Method: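 IA-DTB competitive cysteine chemoproteomics in HEK293T RIPA lysate. Lysates were treated with compound 29 or 30 at 50 or 200 µM for 4 h, then IA-DTB (500 µM, 1 h), trypsin-digested, NeutrAvidin-enriched and analysed by diaPASEF. Competition ratio = intensity DMSO / intensity compound (n=4 treated, n=64 DMSO); binding: mean log2 CR ≥ 1 and p ≤ 0.05 plus QC filters. Target is the cysteine site.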
row,Target,log2 mean competition ratio
1,PDS5A C532 (UniProt Q29RF7),-0.028
2,PGM2L1 C125 (UniProt Q6PCE3),0.13
3,PAK4 C462 (UniProt O96013),0.312
4,PAAT C353 (UniProt Q9H8K7),0.101
5,PCID2 C152 (UniProt Q5JVF3),0.0104
6,PDIA5 C231 (UniProt Q14554),-0.324
7,PGK1 C50 (UniProt P00558),-0.00476
8,PDSS2 C365 (UniProt Q86YH6),0.116
9,PCNT C2150 (UniProt O95613),-0.601
10,PAPOLA C36,-0.062
11,PDXDC1 C361 (UniProt Q6P996),-0.00982
12,PGD C289,-0.0167
13,PEPD C58 (UniProt P12955),0.118
14,PDCD4 C275 (UniProt Q53EL6),0.124
15,PDE1B C282,-0.0284
16,PBLD C24 (UniProt P30039),0.1
17,PCNA C162 (UniProt P12004),-0.285
18,PDLIM1 C263 (UniProt O00151),0.25
19,PDE5A C447 (UniProt O76074),0.024
20,PER1 C368 (UniProt O15534),-0.168

# Same assay, conditions: 200 µM; treatment time: 4 h; cell line lysate: HEK293T
row,Target,log2 mean competition ratio
1,PDS5A C532 (UniProt Q29RF7),0.424
2,PGM2L1 C125 (UniProt Q6PCE3),0.0588
3,PAK4 C462 (UniProt O96013),0.11
4,PAAT C353 (UniProt Q9H8K7),-0.142
5,PCID2 C152 (UniProt Q5JVF3),0.0714
6,PDIA5 C231 (UniProt Q14554),-0.706
7,PGK1 C50 (UniProt P00558),0.131
8,PDSS2 C365 (UniProt Q86YH6),0.148
9,PCNT C2150 (UniProt O95613),-0.008
10,PAPOLA C36,0.43
11,PDXDC1 C361 (UniProt Q6P996),-0.0877
12,PGD C289,-0.049
13,PEPD C58 (UniProt P12955),-0.0693
14,PDCD4 C275 (UniProt Q53EL6),0.307
15,PDE1B C282,0.0847
16,PBLD C24 (UniProt P30039),-0.0483
17,PCNA C162 (UniProt P12004),-0.148
18,PDLIM1 C263 (UniProt O00151),-0.165
19,PDE5A C447 (UniProt O76074),0.33
20,PER1 C368 (UniProt O15534),0.422
